In the test the target is βTRCP1-Flag (UniProt Q9Y297). As to the kind of experiment: co-IP; anti-Flag IP of βTRCP1-Flag from whole cell extracts of transfected UPCISCC154 (HPV-positive) and UMSCC18 (HPV-negative) cells treated with 5 μM MG132 overnight; E1A lysis buffer (50 mM HEPES pH 7, 250 mM NaCl, 0.1% NP-40), antibody o/n at 4 °C; immunoblot for SMAD4. (In western blotting, separated proteins are transferred to a membrane and probed.)

Sequences of proteins named here, by UniProt entry; tags and fusion partners are left off.
UniProt Q9Y297: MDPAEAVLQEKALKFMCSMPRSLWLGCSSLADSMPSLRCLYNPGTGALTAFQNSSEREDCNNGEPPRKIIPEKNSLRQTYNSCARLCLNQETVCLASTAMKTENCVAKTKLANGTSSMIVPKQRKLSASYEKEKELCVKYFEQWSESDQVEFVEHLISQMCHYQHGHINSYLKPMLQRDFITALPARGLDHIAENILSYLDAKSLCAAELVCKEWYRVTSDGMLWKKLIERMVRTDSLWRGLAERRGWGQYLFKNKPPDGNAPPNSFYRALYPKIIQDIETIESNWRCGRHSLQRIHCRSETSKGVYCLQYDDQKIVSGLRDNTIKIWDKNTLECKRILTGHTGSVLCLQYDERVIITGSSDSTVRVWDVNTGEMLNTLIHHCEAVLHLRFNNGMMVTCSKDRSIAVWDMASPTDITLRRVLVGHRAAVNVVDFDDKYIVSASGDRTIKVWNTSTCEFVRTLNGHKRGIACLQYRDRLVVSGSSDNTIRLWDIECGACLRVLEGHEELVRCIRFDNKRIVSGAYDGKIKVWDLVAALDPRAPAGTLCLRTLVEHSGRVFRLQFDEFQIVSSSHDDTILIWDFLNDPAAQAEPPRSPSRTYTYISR
UniProt Q13485: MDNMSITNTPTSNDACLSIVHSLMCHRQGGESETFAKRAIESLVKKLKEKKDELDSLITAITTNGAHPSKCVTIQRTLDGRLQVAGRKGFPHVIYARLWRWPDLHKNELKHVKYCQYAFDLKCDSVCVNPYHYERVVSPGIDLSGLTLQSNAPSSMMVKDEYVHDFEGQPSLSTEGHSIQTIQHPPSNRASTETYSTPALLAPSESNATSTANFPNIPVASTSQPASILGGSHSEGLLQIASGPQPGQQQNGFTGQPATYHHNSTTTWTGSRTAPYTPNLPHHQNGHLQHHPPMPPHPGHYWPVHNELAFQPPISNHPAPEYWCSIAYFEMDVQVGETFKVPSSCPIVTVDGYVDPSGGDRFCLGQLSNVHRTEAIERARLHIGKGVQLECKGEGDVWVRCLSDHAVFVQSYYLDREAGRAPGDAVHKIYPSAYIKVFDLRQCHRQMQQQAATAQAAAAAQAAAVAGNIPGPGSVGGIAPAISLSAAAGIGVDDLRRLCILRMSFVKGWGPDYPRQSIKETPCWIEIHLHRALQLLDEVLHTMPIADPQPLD

No constants are given. Whether binding was seen depends on the method and setting. Binding seen in cells or lysates may run through a third protein. Some binding calls cover weakened binding; strength is not graded here.

Regarding SMAD4 (from UniProt Q13485 1-552), the binding result is “binds”.

(Values after article PMC8830113.)
